The record followed here is the supplement of paper PMC10849652.

Chains of the proteins cited; added tags and fusions are not shown. Lines headed by an entry give the natural chain unless they say otherwise; changes in a name come on top.
UniProt P27449, whole entry, looked up: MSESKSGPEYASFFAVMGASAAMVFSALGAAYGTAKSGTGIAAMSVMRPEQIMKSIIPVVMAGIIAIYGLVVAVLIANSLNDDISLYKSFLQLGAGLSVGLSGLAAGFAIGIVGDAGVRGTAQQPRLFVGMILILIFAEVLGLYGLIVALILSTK
UniProt Q6P4H8: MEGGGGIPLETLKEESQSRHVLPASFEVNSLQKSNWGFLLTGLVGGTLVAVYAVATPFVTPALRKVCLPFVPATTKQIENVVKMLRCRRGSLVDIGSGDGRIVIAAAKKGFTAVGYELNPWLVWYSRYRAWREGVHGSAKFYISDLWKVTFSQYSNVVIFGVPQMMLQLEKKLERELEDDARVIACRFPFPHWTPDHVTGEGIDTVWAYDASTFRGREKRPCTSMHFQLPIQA
UniProt P14415, whole entry, looked up: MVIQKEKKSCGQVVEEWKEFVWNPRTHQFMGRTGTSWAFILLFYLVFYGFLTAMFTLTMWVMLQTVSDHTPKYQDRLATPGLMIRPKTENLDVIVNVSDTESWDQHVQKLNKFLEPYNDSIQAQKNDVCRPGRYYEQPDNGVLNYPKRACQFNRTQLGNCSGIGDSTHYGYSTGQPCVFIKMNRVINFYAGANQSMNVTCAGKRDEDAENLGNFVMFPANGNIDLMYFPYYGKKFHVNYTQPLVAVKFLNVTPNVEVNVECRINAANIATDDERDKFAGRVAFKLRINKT
UniProt Q8NHH9: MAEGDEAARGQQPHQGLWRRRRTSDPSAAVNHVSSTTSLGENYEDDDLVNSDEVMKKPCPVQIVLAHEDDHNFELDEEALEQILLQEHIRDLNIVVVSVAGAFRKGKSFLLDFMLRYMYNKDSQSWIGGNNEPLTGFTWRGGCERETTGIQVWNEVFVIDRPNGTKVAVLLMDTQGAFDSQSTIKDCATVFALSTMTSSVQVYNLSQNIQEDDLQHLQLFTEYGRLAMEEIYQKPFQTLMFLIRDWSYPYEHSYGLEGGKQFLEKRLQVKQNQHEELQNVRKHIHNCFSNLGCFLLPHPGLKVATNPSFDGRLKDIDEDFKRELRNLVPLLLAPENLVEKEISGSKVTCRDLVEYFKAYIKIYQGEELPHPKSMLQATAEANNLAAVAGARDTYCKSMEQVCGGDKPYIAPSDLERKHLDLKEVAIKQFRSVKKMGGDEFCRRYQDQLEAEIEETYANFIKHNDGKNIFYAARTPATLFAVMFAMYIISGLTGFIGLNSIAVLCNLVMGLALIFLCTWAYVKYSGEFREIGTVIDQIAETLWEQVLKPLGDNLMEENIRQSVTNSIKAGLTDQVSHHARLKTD
UniProt P18847: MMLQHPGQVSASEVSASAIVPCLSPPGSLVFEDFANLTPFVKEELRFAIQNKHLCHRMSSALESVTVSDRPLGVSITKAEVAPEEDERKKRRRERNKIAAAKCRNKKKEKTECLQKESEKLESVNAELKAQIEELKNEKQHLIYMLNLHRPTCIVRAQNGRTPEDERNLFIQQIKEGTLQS
UniProt Q9NWX5: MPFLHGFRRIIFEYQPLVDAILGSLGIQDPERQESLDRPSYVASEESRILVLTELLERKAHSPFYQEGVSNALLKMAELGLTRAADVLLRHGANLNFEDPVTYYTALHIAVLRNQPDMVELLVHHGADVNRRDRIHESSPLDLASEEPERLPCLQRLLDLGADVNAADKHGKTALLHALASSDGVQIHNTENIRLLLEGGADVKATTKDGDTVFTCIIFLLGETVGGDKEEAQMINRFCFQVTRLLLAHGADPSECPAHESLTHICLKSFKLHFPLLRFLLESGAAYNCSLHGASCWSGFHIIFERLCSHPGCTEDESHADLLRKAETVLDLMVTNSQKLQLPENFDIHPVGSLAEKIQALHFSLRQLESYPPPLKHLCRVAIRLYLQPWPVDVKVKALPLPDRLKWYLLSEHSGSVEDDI
UniProt P15289: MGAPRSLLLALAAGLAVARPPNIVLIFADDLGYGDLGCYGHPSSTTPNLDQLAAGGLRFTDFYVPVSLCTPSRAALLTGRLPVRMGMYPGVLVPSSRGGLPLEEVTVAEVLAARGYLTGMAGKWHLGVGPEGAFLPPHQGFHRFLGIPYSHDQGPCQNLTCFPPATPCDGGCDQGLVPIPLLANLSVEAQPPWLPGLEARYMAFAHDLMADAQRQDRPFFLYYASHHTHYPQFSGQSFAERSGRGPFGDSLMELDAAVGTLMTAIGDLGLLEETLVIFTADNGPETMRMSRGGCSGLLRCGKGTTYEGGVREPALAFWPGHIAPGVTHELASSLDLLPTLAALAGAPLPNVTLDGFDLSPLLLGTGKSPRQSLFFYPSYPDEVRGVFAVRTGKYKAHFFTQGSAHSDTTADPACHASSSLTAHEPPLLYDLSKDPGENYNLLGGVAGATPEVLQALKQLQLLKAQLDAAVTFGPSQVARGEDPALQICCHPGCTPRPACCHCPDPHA
UniProt Q9Y689: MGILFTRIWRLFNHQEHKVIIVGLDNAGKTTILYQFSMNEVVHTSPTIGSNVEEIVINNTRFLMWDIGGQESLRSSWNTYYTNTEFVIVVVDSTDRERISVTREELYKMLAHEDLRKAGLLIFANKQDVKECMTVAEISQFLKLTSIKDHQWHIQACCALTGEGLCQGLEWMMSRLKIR
UniProt O94817, whole entry, looked up: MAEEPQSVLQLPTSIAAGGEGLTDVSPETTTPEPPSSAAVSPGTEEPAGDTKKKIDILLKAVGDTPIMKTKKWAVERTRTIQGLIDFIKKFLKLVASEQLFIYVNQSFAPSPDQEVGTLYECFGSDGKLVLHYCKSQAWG
UniProt Q6UWY0: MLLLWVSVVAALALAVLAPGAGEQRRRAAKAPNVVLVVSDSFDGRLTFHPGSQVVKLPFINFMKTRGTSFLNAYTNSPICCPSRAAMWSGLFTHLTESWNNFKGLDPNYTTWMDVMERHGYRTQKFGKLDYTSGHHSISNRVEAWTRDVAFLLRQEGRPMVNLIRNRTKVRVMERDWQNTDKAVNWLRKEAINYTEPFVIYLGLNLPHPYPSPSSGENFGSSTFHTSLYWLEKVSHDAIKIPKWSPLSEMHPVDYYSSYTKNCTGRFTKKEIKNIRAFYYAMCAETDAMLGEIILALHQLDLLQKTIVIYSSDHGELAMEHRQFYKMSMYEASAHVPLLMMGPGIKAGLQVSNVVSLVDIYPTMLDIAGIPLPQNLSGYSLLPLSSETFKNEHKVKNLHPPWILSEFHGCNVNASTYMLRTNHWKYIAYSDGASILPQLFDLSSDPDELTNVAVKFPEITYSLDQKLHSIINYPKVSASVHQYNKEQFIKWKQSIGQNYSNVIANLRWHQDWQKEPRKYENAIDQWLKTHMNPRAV
UniProt Q9H0Y0: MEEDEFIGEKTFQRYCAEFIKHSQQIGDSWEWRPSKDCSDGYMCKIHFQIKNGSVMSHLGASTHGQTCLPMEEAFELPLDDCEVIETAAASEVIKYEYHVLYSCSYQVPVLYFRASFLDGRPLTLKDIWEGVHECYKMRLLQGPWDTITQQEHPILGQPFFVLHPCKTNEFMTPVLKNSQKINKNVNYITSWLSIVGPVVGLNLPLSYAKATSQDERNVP
UniProt Q6VMQ6: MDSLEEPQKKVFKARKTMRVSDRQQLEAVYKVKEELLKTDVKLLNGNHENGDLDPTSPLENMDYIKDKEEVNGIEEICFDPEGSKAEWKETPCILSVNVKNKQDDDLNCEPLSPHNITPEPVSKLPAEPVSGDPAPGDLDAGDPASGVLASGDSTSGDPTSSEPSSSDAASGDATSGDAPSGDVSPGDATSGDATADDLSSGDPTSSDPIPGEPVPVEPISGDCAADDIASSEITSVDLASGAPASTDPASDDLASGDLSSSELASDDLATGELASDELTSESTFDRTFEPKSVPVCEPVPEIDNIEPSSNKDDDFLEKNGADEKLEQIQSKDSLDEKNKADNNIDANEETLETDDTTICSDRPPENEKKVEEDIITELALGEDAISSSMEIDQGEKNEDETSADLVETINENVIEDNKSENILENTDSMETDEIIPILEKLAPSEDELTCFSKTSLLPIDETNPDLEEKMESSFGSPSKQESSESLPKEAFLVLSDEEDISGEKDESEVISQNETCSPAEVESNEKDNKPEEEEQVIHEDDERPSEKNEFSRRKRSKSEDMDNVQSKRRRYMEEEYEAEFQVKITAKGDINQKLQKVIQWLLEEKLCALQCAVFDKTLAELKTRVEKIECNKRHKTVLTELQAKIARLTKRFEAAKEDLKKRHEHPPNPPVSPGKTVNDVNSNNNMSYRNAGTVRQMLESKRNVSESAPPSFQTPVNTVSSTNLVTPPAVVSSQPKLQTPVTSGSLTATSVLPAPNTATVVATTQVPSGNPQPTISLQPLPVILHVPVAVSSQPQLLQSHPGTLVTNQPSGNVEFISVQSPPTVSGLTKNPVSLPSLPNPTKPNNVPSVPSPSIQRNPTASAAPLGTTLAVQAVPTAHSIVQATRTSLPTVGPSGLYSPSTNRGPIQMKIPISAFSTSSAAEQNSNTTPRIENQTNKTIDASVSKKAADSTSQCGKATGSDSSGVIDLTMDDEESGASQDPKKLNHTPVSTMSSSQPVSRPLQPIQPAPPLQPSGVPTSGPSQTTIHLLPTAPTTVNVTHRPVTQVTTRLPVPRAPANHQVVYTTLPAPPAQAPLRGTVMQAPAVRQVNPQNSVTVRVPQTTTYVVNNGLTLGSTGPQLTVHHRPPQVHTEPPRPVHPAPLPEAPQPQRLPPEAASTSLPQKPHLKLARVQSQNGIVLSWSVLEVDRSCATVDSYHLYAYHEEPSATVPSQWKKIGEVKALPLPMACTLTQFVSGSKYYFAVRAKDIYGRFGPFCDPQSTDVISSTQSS
UniProt Q8IUR7, whole entry, looked up: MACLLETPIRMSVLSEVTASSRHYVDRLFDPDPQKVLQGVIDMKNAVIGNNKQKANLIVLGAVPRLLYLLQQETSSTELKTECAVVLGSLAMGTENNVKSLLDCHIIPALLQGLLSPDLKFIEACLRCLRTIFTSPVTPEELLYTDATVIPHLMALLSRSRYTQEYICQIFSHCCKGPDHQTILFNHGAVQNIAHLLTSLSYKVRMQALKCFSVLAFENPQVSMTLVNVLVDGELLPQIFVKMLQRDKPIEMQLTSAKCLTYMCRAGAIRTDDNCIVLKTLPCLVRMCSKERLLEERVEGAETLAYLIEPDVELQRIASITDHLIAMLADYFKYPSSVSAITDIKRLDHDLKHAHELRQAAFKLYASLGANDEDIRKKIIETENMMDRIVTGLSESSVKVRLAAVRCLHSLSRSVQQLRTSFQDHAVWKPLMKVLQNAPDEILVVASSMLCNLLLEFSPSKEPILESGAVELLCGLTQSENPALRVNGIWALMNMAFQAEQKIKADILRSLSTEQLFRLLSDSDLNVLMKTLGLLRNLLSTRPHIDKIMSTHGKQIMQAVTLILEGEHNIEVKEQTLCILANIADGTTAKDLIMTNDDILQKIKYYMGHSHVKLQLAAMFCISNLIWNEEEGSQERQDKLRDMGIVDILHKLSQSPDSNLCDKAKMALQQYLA
UniProt Q9NWL6: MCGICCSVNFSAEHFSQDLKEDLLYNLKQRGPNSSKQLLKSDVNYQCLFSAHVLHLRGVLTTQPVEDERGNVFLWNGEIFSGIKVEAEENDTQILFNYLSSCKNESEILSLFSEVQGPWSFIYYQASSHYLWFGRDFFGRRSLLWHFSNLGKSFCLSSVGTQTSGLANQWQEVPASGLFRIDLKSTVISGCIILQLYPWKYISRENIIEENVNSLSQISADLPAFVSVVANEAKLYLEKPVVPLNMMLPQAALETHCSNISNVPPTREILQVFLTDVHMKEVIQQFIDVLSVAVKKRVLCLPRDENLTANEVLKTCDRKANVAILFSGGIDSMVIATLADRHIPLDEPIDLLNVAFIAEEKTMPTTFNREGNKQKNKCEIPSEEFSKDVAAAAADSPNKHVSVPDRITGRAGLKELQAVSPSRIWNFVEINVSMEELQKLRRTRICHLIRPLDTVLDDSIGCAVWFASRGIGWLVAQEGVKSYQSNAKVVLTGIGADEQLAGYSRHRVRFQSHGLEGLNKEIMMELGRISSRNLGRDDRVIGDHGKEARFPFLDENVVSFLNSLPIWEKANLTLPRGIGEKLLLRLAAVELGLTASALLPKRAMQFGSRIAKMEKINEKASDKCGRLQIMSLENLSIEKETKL
UniProt Q3SXY8: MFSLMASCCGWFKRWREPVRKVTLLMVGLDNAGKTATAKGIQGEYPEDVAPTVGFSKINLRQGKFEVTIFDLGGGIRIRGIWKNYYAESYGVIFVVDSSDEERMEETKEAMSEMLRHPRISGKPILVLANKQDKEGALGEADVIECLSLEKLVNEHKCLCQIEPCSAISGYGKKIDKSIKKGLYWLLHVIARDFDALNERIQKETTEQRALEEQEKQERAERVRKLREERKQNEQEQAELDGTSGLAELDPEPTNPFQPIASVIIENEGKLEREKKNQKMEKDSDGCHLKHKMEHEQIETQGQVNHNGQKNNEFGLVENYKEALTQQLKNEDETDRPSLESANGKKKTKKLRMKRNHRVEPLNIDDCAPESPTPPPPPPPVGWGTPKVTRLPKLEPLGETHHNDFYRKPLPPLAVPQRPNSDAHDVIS

The list shows a part of the results.

Compound in the first assay: CC[C@@H]1C(=O)N(C)c2cnc(Nc3ccc(C(=O)N[C@H]4CC[C@H](N5CCN(CC6CC6)CC5)CC4)cc3OC)nc2N1C(C)C [volasertib]
As to the kind of experiment: log2 fold change, soluble protein after heating vs DMSO (PISA); higher = thermal stabilisation; K562 cells, 10 uM, 30 min; active = over 0.2 and 3.5 SD of the protein, either way, in both replicates (recomputed). In short, it runs like this:
(§1)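 Soluble protein was defined as the supernatant after 21,000xg for 90 min. It came from K562 cells at 2×10^6 cells/mL given 10 μM compound for 30 min, heated in aliquots for 3 min across 48°C-58°C, pooled, and extracted in PBS with 0.5% NP-40 at 4°C, and was quantified by TMTpro 16plex LC-MS/MS with equalised channel sums. Thermal stability against control samples, from duplicates, is reported as log2 fold change.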
Take ATP6V0C (UniProt P27449): the log2 fold change was inactive: -0.049. With ATPSCKMT (UniProt Q6P4H8), the log2 fold change was inactive: 0.058. The same measure, in the same setting: for ATP1B2 (UniProt P14415) the value was inactive: -0.034. Same read-out and setting: for ATL2 (UniProt Q8NHH9) the value was inactive: 0.037; for ATF3 (UniProt P18847), inactive: 0.106; for ASB6 (UniProt Q9NWX5), inactive: -0.321. On the same count and under the same terms, next, ARL5B (UniProt Q96KC2): inactive: -0.05; ARPIN isoform 2 (UniProt Q7Z6K5): inactive: -0.361; ARSA (UniProt P15289): inactive: 0.025.

As to ASXL1 (UniProt Q8IXJ9), the log2 fold change is inactive: 0.191. Still for that read-out and setting: next, ARRDC1 (UniProt Q8N5I2): inactive: -0.137; ARL5A (UniProt Q9Y689): inactive: -0.144; ATF7 isoform 6 (UniProt P17544): inactive: -0.014.

As for ATP1B1 (UniProt P05026), the log2 fold change is inactive: 0.006. Still for that read-out and setting: next, ASS1 (UniProt P00966): inactive: 0.024; ATG14 (UniProt Q6ZNE5): inactive: -0.017; ATP2C1 isoform 3 (UniProt P98194): inactive: -0.013. Turning to ATG12 (UniProt O94817), the log2 fold change was inactive: -0.059. For ATP5F1B (UniProt F8W0P7), the log2 fold change was inactive: 0.172. On the same count and under the same terms, next, ATE1 (UniProt O95260): inactive: 0.022. Same read-out and setting: for ATP2B2 (UniProt Q01814) the value was inactive: -0.227; for ARRB1 isoform 2 (UniProt P49407), inactive: 0.02; for ASF1B (UniProt Q9NVP2), inactive: -0.269. Take ATP5F1B (UniProt H0YI37): the log2 fold change was inactive: 0.189. Still for that read-out and setting: next, ATF1 (UniProt P18846): inactive: 0.109.

Compound in another assay: CC[C@H](C)N1C=C(C2=C(C=C(C=C21)C3=CN=C(C=C3)N4CCNCC4)C(=O)NCC5=C(C=C(NC5=O)C)C)C
The assay is described as above. The method in brief:
as §1
ATP6V0C (UniProt P27449): the log2 fold change is inactive: -0.082. On the same count and under the same terms, next, ATPSCKMT (UniProt Q6P4H8): inactive: -0.032. Same read-out and setting: next, ARSK (UniProt Q6UWY0): inactive: 0.057; ATL2 (UniProt Q8NHH9): inactive: 0.066.

For ATG10 (UniProt Q9H0Y0), the log2 fold change is inactive: -0.014.

In the case of ATF3 (UniProt P18847), the log2 fold change is inactive: 0.22. Still for that read-out and setting: next, ASB6 (UniProt Q9NWX5): inactive: 0.028.

Take ARL5B (UniProt Q96KC2): the log2 fold change was inactive: 0.076. On the same count and under the same terms, for ARPIN isoform 2 (UniProt Q7Z6K5) the value was inactive: 0.133; for ARSA (UniProt P15289), inactive: 0.107; for ARRDC1 (UniProt Q8N5I2), inactive: -0.09. On the same count and under the same terms, next, ARL5A (UniProt Q9Y689): inactive: 0.046; ATF7 isoform 6 (UniProt P17544): inactive: 0.041; ATF7IP isoform 4 (UniProt Q6VMQ6): inactive: -0.259. Same read-out and setting: next, ATP1B1 (UniProt P05026): inactive: 0.034; ASS1 (UniProt P00966): inactive: 0.412; ATG12 (UniProt O94817): inactive: 0.061.

Regarding ATP5F1B (UniProt F8W0P7), the log2 fold change was inactive: -0.15. Still for that read-out and setting: next, ARMC8 isoform 6 (UniProt Q8IUR7): inactive: 0.048; ASNSD1 (UniProt Q9NWL6): inactive: 0.091. The same measure, in the same setting: for ASF1B (UniProt Q9NVP2) the value was inactive: 0.147; for ARL13B (UniProt Q3SXY8), inactive: -0.022; for ATF1 (UniProt P18846), inactive: -0.065.
